These results are taken from PMC3745031 (Bioorganic & medicinal chemistry letters, 2012).

Broadly, the IC50 is the concentration needed to halve the response being measured.

For this test, the system named is HDAC activity of HeLa cell lysates. As to conditions: read-out: IC50, HDAC inhibition, mean of at least three experiments with standard error.

For the compound `O=C(CCCCCCC(=O)Nc1ccccc1)NO` [SAHA, Suberoylanilide hydroxamic acid], the IC50 amounted to 86 ± 4 nM.
